Several values for one entry are separate records, joined by “and”; a condition that tells them apart may be missing. Equal values may be shown once. Hit rate of the full screen: of about 300,000 compounds, about 5,400 (1.8%) were called active. The inconclusive results got no clear call from the source; some entries with a clear call stand among them for comparison. Calls follow the shape of the full dose curve; tested in HEK293 cells. Potencies of inconclusive entries are doubtful fits and often do not repeat. A structure can be active in one record and inactive in another.
Experiment: qHTS for inhibitors of binding or entry into cells for Marburg Virus
Conditions: Marburg virus pseudotyped entry inhibition, cell reporter; activity change, negative = inhibition: at 37.8 µM (top of the series) unless noted
% is scaled to controls: 0 for no effect and ±100 for the full control effect; potency is read from the fitted curve at half-maximal effect.

Question: For `CCOc1ccc(N(CC(=O)NCc2cccc(OC)c2)S(=O)(=O)c2c(C)noc2C)cc1`, which Potency is on record?
Answer: inconclusive: 13 µM [inhibitor, partial curve, poor fit]

Question: Which Potency does the source give for `OC1C=CSc2nc3ccccc3n21` (stereo not given) here?
Answer: inconclusive: 12.6 µM [inhibitor, single point]

Question: For `COc1cc(NC(=O)c2nc3ccccc3n(C)c2=O)cc(OC)c1OC`, which Potency is on record?
Answer: inconclusive: 25.1 µM [inhibitor, single point]

Question: Which “activity change, negative = inhibition” value does the source give for `Cc1cc(C)c2cc(C#N)c(SCC(=O)Nc3cc(C)on3)nc2c1` here?
Answer: inactive: 20.4% [at 46.1 µM]

Question: With `Cc1cccc(N2CCN(C(=O)c3ccc4c(Cl)c5c(nc4c3)CCCC5)CC2)c1C` as the molecule, how does the “activity change, negative = inhibition” value read?
Answer: inactive: 9.9% [at 46.1 µM]

Question: With `COc1ccccc1NC(=O)CCSc1nnnn1C` as the molecule, how does the Potency read?
Answer: inconclusive: 4.47 µM [inhibitor, single point]

Question: Which Potency does the source give for `COc1ccc(NC(=O)Cn2nc(C(F)(F)F)c3c2CCCC3)cc1OC` here?
Answer: inconclusive: 7.94 µM [inhibitor, partial curve, poor fit]

Question: For `COc1ccc(C(C[N+](=O)[O-])c2c(C)cc3ccccn23)cc1` (stereo not given), which Potency is on record?
Answer: inconclusive: 7.08 µM [inhibitor, partial curve, poor fit]

Question: With `Cc1nc2c(C)c(C)c(C)c(C)c2nc1C` as the molecule, how does the “activity change, negative = inhibition” value read?
Answer: inactive: 0% [at 14.2 µM]

Question: Which Potency does the source give for `CCc1cc(=O)[nH]c(SCC(=O)Nc2ccc3c(c2)OCCO3)n1` here?
Answer: inconclusive: 35.5 µM [activator, single point]

Question: With `CCn1cc(C(=O)NCCc2ccc(C)cc2)c(=O)c2cc(S(=O)(=O)N3CCC(C)CC3)ccc21` as the molecule, how does the Potency read?
Answer: inconclusive: 10 µM [activator, partial curve, poor fit]

Question: With `Cc1ccccc1Nc1c(-c2ccc(N3CCOCC3)cc2)nc2cnccn12` as the molecule, how does the Potency read?
Answer: inconclusive: 7.08 µM [activator, full curve, poor fit]

Question: For `Cc1ccc(S(=O)(=O)c2c(C)cc(C)nc2Oc2cccc(C(F)(F)F)c2)cc1`, which Potency is on record?
Answer: inconclusive: 17.8 µM [inhibitor, partial curve, poor fit]

Question: Which Potency does the source give for `O=S(=O)(NCC1CCCO1)c1ccc(S(=O)(=O)N(Cc2ccccc2F)C2CCCCC2)cc1` (stereo not given) here?
Answer: inconclusive: 32.6 µM [inhibitor, single point]

Question: Which “activity change, negative = inhibition” value does the source give for `Cc1ccn2c(NC3CCCC3)c(-c3cccs3)nc2c1` here?
Answer: inactive: -10.4% [at 46.1 µM]

Question: With `O=C(NC(=S)Nc1ccccc1CO)C1CCCCC1` as the molecule, how does the Potency read?
Answer: inconclusive: 3.16 µM [activator, single point]

Question: Which Potency does the source give for `Cc1[nH]n(-c2ccccc2)c(=O)c1N=Nc1ccc(F)cc1` here?
Answer: inconclusive: 20 µM [activator, single point]

Question: With `O=C(Nc1ccc(NS(=O)(=O)c2ccccc2)cc1)c1ccccc1` as the molecule, how does the Potency read?
Answer: inconclusive: 3.16 µM [inhibitor, partial curve, poor fit]

Question: For `CCC(=O)n1nc(-c2ccccc2)nc1NCc1ccccc1`, which Potency is on record?
Answer: inconclusive: 0.73 µM [activator, full curve, poor fit]

Question: Which “activity change, negative = inhibition” value does the source give for `Cc1ccc(C(=O)O/N=C(\N)c2ccc(C(F)(F)F)cn2)cc1` here?
Answer: inactive: 11.8% [at 46.1 µM]

Question: Which “activity change, negative = inhibition” value does the source give for `CCOC(=O)CN(c1ccccn1)S(=O)(=O)c1ccccc1` here?
Answer: inactive: 24.4%

Question: With `CN(O)C(=S)c1ccccc1` as the molecule, how does the Potency read?
Answer: inconclusive: 2 µM [inhibitor, full curve, poor fit]

Question: Which Potency does the source give for `CCC(C(=O)NC1CCCC1)N(C(=O)Cn1nnc(-c2cccs2)n1)c1cnc2ccccc2c1` (stereo not given) here?
Answer: inconclusive: 0.92 µM [inhibitor, partial curve, poor fit]

Question: For `COc1ccc(C(C)=O)cc1COC(=O)c1cc2ccccc2cc1O`, which “activity change, negative = inhibition” value is on record?
Answer: inactive: -3.82% [at 46.1 µM]

Question: For `COc1ccc(C(=O)NC(=S)Nc2ccccc2N2CCCCC2)cc1[N+](=O)[O-]`, which Potency is on record?
Answer: inconclusive: 10 µM [inhibitor, partial curve, poor fit]

Question: Which Potency does the source give for `COc1cc(Cn2c(-c3nonc3N)nc3ccccc32)ccc1C` here?
Answer: inconclusive: 4.47 µM [inhibitor, partial curve, poor fit]

Question: With `CCCCOc1cccc(C(=O)O)c1` as the molecule, how does the Potency read?
Answer: inconclusive: 8.91 µM [activator, partial curve, poor fit]

Question: With `O=C(CN(CC1CCCO1)C(=O)c1nsc(Cl)c1Cl)NC1CCCC1` (stereo not given) as the molecule, how does the “activity change, negative = inhibition” value read?
Answer: inactive: -24.4%

Question: With `Cc1ccccc1C(=O)NC(=S)NCC(=O)c1ccccc1` as the molecule, how does the “activity change, negative = inhibition” value read?
Answer: inactive: 2.48%

Question: With `Cc1nc(NC(C)c2ccccc2)c2oc3ccccc3c2n1` (stereo not given) as the molecule, how does the Potency read?
Answer: inconclusive: 7.94 µM [inhibitor, partial curve, poor fit]

Question: For `O=c1[nH]c(=O)n(CCC2=CCCCC2)c(O)c1C=Nc1cccc(F)c1`, which “activity change, negative = inhibition” value is on record?
Answer: inactive: -14%

Question: Which Potency does the source give for `O=C(c1ccccc1)c1ccc(N2CCOCC2)cc1` here?
Answer: inconclusive: 2.82 µM [activator, partial curve, poor fit]

Question: Which Potency does the source give for `Cc1ccc(NC(=O)C2CCCO2)cc1[N+](=O)[O-]` (stereo not given) here?
Answer: inconclusive: 15.8 µM [activator, single point]

Question: For `c1ccc2c(c1)[nH]c1c(N3CCN(C4CCCCC4)CC3)ncnc12`, which Potency is on record?
Answer: inconclusive: 20 µM [inhibitor, single point]

Question: Which Potency does the source give for `CCCS(=O)(=O)c1cscc1NC(=O)c1c(-c2c(F)cccc2Cl)noc1C` here?
Answer: inconclusive: 1.41 µM [activator, partial curve, poor fit]

Question: For `COc1ccc(OC)c(S(=O)(=O)N2CCC(C(=O)N3CCc4ccccc4C3)CC2)c1`, which Potency is on record?
Answer: inconclusive: 3.98 µM [activator, partial curve, poor fit]

Question: Which Potency does the source give for `Nc1ccccc1SCC(=O)Nc1nccs1` here?
Answer: inconclusive: 35.5 µM [inhibitor, single point]

Question: Which “activity change, negative = inhibition” value does the source give for `COc1ccc(N(C)C(=O)c2ccc3snnc3c2)cc1` here?
Answer: inactive: 3.47%

Question: Which Potency does the source give for `Cc1cc(C)cc(NC(=O)CSc2nnc(CNC(=O)c3ccco3)n2C)c1` here?
Answer: inconclusive: 0.178 µM [inhibitor, full curve, poor fit]

Question: Which “activity change, negative = inhibition” value does the source give for `O=C(CNc1ccccc1)N/N=C/c1ccc([N+](=O)[O-])cc1` here?
Answer: inactive: 11.1%

Question: With `CCOC(=O)c1ccc(COC(=O)c2ccc3c(c2)-c2ccccc2C3=O)cc1` as the molecule, how does the “activity change, negative = inhibition” value read?
Answer: inactive: 24.7%

Question: Which Potency does the source give for `O=C(Nc1cccnc1)c1cc(-c2ccc(Cl)cc2)on1` here?
Answer: inactive

Question: With `CCOc1cc(/C=C2/SC(=S)N(CC3CCCO3)C2=O)ccc1O` (stereo not given) as the molecule, how does the “activity change, negative = inhibition” value read?
Answer: inactive: 7%

Question: For `N#CC1(NC(=O)COC(=O)c2ccccc2SCC(=O)N2CCCC2)CCCCC1`, which “activity change, negative = inhibition” value is on record?
Answer: inactive: -0.736%

Question: With `COc1ccc(OC)c(-n2c(N)c(C(=O)NCC3CCCO3)c3nc4ccccc4nc32)c1` (stereo not given) as the molecule, how does the Potency read?
Answer: inconclusive: 0.224 µM [inhibitor, full curve, poor fit]

Question: With `Cn1cccc1C(=O)C(=O)Nc1ccc(F)c(F)c1` as the molecule, how does the Potency read?
Answer: inconclusive: 10 µM [inhibitor, single point]

Question: Which “activity change, negative = inhibition” value does the source give for `CO[C@H](C1CCCCC1)[C@H](C)/C=C/CC(=O)OCCCc1ccccc1` here?
Answer: inactive: 5.36% [at 14.2 µM]

Question: Which Potency does the source give for `Cc1ccc(Cc2cnc(NC(=O)c3ccco3)s2)cc1` here?
Answer: inconclusive: 13 µM [inhibitor, partial curve, poor fit]

Question: For `CCCNC(=O)/C=C/c1ccc(C(C)C)cc1`, which Potency is on record?
Answer: inconclusive: 18.4 µM [activator, single point]

Question: Which Potency does the source give for `CCn1cc(S(=O)(=O)c2ccc(C)cc2)c(=O)c2cc(OC)ccc21` here?
Answer: inconclusive: 6.31 µM [inhibitor, single point]

Question: Which Potency does the source give for `CC(C)(C)NCC(=Cc1ccccc1)C(=O)c1ccccc1` here?
Answer: active: 7.94 µM

Question: Which Potency does the source give for `CCN(CC)S(=O)(=O)c1cccc(-c2nnc(SCCCC(=O)c3ccc(F)cc3)o2)c1` here?
Answer: inactive and active: 20.6 µM

Question: Which “activity change, negative = inhibition” value does the source give for `CC(=O)Nc1nnc(SCC(=O)NCC2CCCO2)s1` (stereo not given) here?
Answer: inactive: -7.27%

Question: Which Potency does the source give for `O=C(O)CCc1ccc(-c2ccc(Cl)cc2)o1` here?
Answer: inconclusive: 18.3 µM [activator, single point]

Question: Which Potency does the source give for `Cc1cc(C)n(-c2cc(N3CCN(C(=O)c4cccc(Br)c4)CC3)ccc2[N+](=O)[O-])n1` here?
Answer: inconclusive: 11.2 µM [inhibitor, partial curve, poor fit]

Question: With `Cc1cc(NC(=O)CSCC(=O)OCc2nnc(-c3ccccc3)o2)no1` as the molecule, how does the “activity change, negative = inhibition” value read?
Answer: inactive: 2.27% [at 46.1 µM]

Question: With `COc1ccc(N(Cc2ccccc2)N=O)cc1` as the molecule, how does the “activity change, negative = inhibition” value read?
Answer: inactive: 11.9% [at 46.1 µM]

Question: Which Potency does the source give for `Nc1nc(N2CCN(C(=O)c3ccco3)CC2)nc2ccc(Br)cc12` here?
Answer: inconclusive: 18.3 µM [inhibitor, single point]

Question: Which Potency does the source give for `CCOC(=O)C1CCN(S(=O)(=O)c2cccc(-c3cn4ccccc4n3)c2)CC1` here?
Answer: inconclusive: 14.1 µM [inhibitor, partial curve, poor fit]

Question: Which Potency does the source give for `CC1CC(OCC(O)CN2CCN(Cc3ccccc3)CC2)CC(C)(C)C1` (stereo not given) here?
Answer: inconclusive: 35.5 µM [inhibitor, single point]

Question: Which “activity change, negative = inhibition” value does the source give for `CC(c1ccccc1)n1cc(C(=O)NCc2cccnc2)nn1` (stereo not given) here?
Answer: inactive: 16.1% [at 46.1 µM]

Question: Which Potency does the source give for `Clc1ccccc1-c1nc2nc3ccccc3nc2n1-c1ccc2c(c1)OCO2` here?
Answer: inconclusive: 35.5 µM [inhibitor, single point]

Question: Which Potency does the source give for `O=c1ccc2c(OCCCCc3ccccc3)c3ccoc3cc2o1` here?
Answer: inactive and inconclusive: 5.01 µM [inhibitor, full curve, poor fit]

Question: For `COCc1c(C(=O)N2CCc3ccccc32)oc2ccccc12`, which Potency is on record?
Answer: inconclusive: 5.62 µM [activator, single point]

Question: Which Potency does the source give for `CCc1nc(SCC(=O)N2CCN(C(=O)c3ccco3)CC2)c2c3c(sc2n1)CCCC3` here?
Answer: inconclusive: 35.5 µM [inhibitor, single point]

Question: Which “activity change, negative = inhibition” value does the source give for `Cn1c(COc2ccc(F)cc2)nnc1SCC(=O)NC1CC1` here?
Answer: inactive: 0.966%

Question: Which Potency does the source give for `Cc1[nH]ncc1-c1nc2ccccc2[nH]1` here?
Answer: inconclusive: 3.16 µM [activator, partial curve, poor fit]

Question: With `CC(=O)NC(=S)Nc1sc2c(c1C#N)CCCCC2` as the molecule, how does the Potency read?
Answer: inconclusive: 1.26 µM [activator, single point]

Question: For `Cc1ccc(NS(=O)(=O)c2ccc(C(=O)NNC(=O)c3ccccc3O)cc2)cc1`, which Potency is on record?
Answer: inconclusive: 12.6 µM [inhibitor, partial curve, poor fit]

Question: With `COc1ccc(CNc2nc3c(-c4cccc(F)c4)nnn3c3ccccc23)cc1` as the molecule, how does the Potency read?
Answer: inconclusive: 10 µM [activator, partial curve]
